PubChem BioAssay AID720505 – Drosophila RNAi Screening Center, 2013

Screen: 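Fly regulators or components of the CRAC channel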 (primary screen)
System: Drosophila S2R+ cells
Knock-down reagent: long dsRNA against Drosophila genes
Treatment: thapsigargin (2 µM) in calcium-free buffer to empty internal stores, then 2 mM calcium added back
Measured: 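Fluo-4 signal in 384-well plates read on a FLIPR after thapsigargin (2 µM, calcium-free) store depletion and 2 mM calcium add-back; unnormalised mean endpoint per well; screen run twice, selected wells retested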
Scale: calcium signal and retest calcium signal: higher = more calcium entry after store depletion
Call rule: 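Knock-downs counted as hits when calcium entry dropped relative to STIM1 positive and Rho1 negative controls present on each plate; roughly 1500 genes called, with reductions of differing size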
Calls: active = called as lowering calcium entry; inactive = not called
In all, the deposit lists about 20,000 reagents; below is an unselected part of those with a known target gene and a result. In the full data, about 2,100 (10%) got an active call. 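Raw plate signals without normalisation; calls rest on control-based scores that were not deposited; replicate 2 separates called from uncalled poorly.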 Entries without a mark were called inactive. Not stated in the record: the amount of reagent, the time to read-out.

Target gene	dsRNA	calcium signal, replicate 1	calcium signal, replicate 2	retest calcium signal, replicate 1	retest calcium signal, replicate 2
Sld5	DRSC14892	188	124		
CG14088	DRSC10092	113	119		
Grip128	DRSC20167	128	119		
su(Hw) (suppressor of Hairy wing)	DRSC17074	109	94.6		
Or94a (Odorant receptor 94a)	DRSC16772	246	222		
tej (tejas)	DRSC07219	124	145		
Prosalpha5 (Proteasome alpha5 subunit)	DRSC07514	55.9 (active)	67.7		
Dhod (Dihydroorotate dehydrogenase)	DRSC16647	116	129		
CG6933	DRSC10751	111	69.2		
CG9346	DRSC04542	192	94.1		
CG18404	DRSC15323	120	124		
GstD4 (Glutathione S transferase D4)	DRSC16685	107	105		
Tango5 (Transport and Golgi organization 5)	DRSC18023	146	152		
CG17672	DRSC10278	94.7	94.7		
Ugt49C1 (UDP-glycosyltransferase family 49 member C1)	DRSC04252	88	108		
yl (yolkless)	DRSC20387	82.3	120		
ND-B18 (NADH dehydrogenase (ubiquinone) B18 subunit)	DRSC19947	69.5 (active)	129		
CG5397	DRSC00683	137	289		
cd (cardinal)	DRSC16157	91.5	154		
CG7024	DRSC18414	266	116		
pigs (pickled eggs)	DRSC18334	202	130		
pigs (pickled eggs)	DRSC18335	170	84.5		
CG15673	DRSC04263	215	108		
Xxylt (Xyloside xylosyltransferase)	DRSC04107	193	151		
CG13589	DRSC04225	111	189		
GC2	DRSC14476	177	84.8		
CCKLR-17D1 (Cholecystokinin-like receptor at 17D1)	DRSC20010	60.3 (active)	87.5		
CCKLR-17D1 (Cholecystokinin-like receptor at 17D1)	DRSC20011	41.7 (active)	91.2		
CCKLR-17D1 (Cholecystokinin-like receptor at 17D1)	DRSC20012	61.4 (active)	109		
EMC4 (ER membrane protein complex subunit 4)	DRSC11638	98.9	98.9		
CG30458	DRSC06660	197	145	129	104
CG14220	DRSC19577	73.5 (active)	163		
CG31937	DRSC00514	133	220		
CG4691	DRSC01950	121	96.9		
lncRNA:CR43409 (long non-coding RNA:CR43409)	DRSC01164	99.8	95.1		
Gel (Gelsolin)	DRSC12350	112	92.5		
CG9689	DRSC18440	115	105		
Zip99C (Zinc/iron regulated transporter-related protein 99C)	DRSC16320	122	149		
CG1492	DRSC19605	113	113		
RpL5 (Ribosomal protein L5)	DRSC03801	144	98.3		
CG32202	DRSC09989	105	199		
CG6511	DRSC10656	90.2	83.3		
CG12990	DRSC19510	115	122		
CG1907	DRSC15399	71.2	151		
vih (vihar)	DRSC09778	45.5 (active)	42.8		
l(3)mbt (lethal (3) malignant brain tumor)	DRSC16983	132	167		
Vps50 (Vacuolar protein sorting 50)	DRSC06910	142	129		
Rab35	DRSC20691	110 (active)	82.2		
CG10182	DRSC14202	142	90.1		
bol (boule)	DRSC10444	102	90.7		
bol (boule)	DRSC11329	88.8	89.1		
CG31735	DRSC01518	189	127		
Amyrel (Amylase related)	DRSC05920	160	159		
CG9297	DRSC16469	67.9 (active)	145		
COX8 (Cytochrome c oxidase subunit 8)	DRSC11814	84.1	148		
Gdap2	DRSC06789	129	149		
Gdap2	DRSC06790	128	178		
CG13272	DRSC02249	70 (active)	93.5		
CG13272	DRSC22910	125	161		
CG14330	DRSC14809	125	147		
bowl	DRSC00805	128	192		
CG14456	DRSC11713	73.8	94.7		
CG11726	DRSC09858	81.8	112		
Sema2b (Semaphorin 2b)	DRSC05609	139	92.8		
Sema2b (Semaphorin 2b)	DRSC05611	64.8	143		
Sema2b (Semaphorin 2b)	DRSC06867	127	116		
CG9517 (retired record)	DRSC20192	87.2	122		
CG9517 (retired record)	DRSC20193	115	151		
CG13344	DRSC06378	145	160		
Mkk4 (MAP kinase kinase 4)	DRSC16739	118	170		
ND1 (retired record)	DRSC21273	188	88.8		
Arpc5 (Actin-related protein 2/3 complex, subunit 5)	DRSC00730	146	118		
capt (capulet)	DRSC00676	219	144		
capt (capulet)	DRSC00806	229	134		
CG8202	DRSC16396	79.3	169		
CG10809	DRSC09802	96.3	109		
Thor	DRSC00770	127	280		
CG14212	DRSC19568	73.6 (active)	233		
CG8960	DRSC08612	95.8	110		
CG31029	DRSC15422	232	142		
CG10479	DRSC09733	94.4	87.8		
CG5388	DRSC15789	207	168		
Socs16D (Suppressor of Cytokine Signaling at 16D)	DRSC20087	132	146		
Socs16D (Suppressor of Cytokine Signaling at 16D)	DRSC23165	110	102		
